Data as given in PubChem BioAssay AID504786 (Drosophila RNAi Screening Center, 2011)

Screen: 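Fly genes required for HIF-dependent transcription when hypoxia is mimicked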 (primary screen)
Cells: Drosophila S2 cells with a stable HIF luciferase reporter
Knock-down reagent: long dsRNA against Drosophila genes, about 0.2 µg dsRNA per well of a 384-well plate
Timing: three days of knock-down, then 20 h of DFO before reading
Treatment: desferrioxamine (DFO) at 100 µM, an iron chelator that mimics hypoxia, for 20 h
Measurement: 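Firefly luciferase driven by the mouse ldh-a hypoxia-response element, measured after 20 h of 100 µM DFO; z-scores per plate, higher means more signal lost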
Reading the numbers: z-score: higher = stronger loss of HIF reporter signal
The screen tested about 21,000 reagents; below is a random part of those that have a named target and a result. 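Primary screen; positive scores mean lost reporter signal, so the sign may be inverted from the usual convention.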 A plus sign joins genes that one reagent is predicted to hit.

target | amplicon | z-score, replicate 1 | z-score, replicate 2 | z-score, replicate 3 | z-score, replicate 4
CG5402 | DRSC15792 | 0.1 | 0.6 | – | –
CG9813 | DRSC16569 | 0.2 | 0.6 | – | –
fh | DRSC18430 | 0 | 0.5 | – | –
CG8461 | DRSC16424 | -0.3 | 0 | – | –
LysD + LysB + LysC (retired record) | DRSC21249 | -0.2 | -0.2 | – | –
CG1571 | DRSC18068 | -0.2 | -0.2 | – | –
Adgf-A2 | DRSC09507 | -0.1 | 0.3 | – | –
CG31559 | DRSC12172 | 0 | 0.3 | – | –
CG31559 | DRSC12270 | -0.1 | 0.4 | – | –
stas | DRSC20104 | -0.3 | 0.4 | – | –
iav | DRSC18363 | 0 | 0.1 | – | –
CG34012 | DRSC09089 | 1.6 | 0.8 | – | –
pyd | DRSC12712 | -0.5 | -0.4 | 0.3 | -0.2
pyd | DRSC14387 | -0.4 | -0.6 | – | –
pyd | DRSC14445 | -0.2 | 1 | – | –
pyd | DRSC14509 | 0 | -0.1 | – | –
pyd | DRSC16547 | -0.4 | -1 | – | –
pyd | DRSC16548 | -0.1 | -0.1 | – | –
pyd | DRSC17041 | -0.3 | -0.7 | – | –
CG16753 | DRSC08489 | -0.1 | 0.1 | – | –
Sil1 | DRSC14242 | -0.2 | 0.2 | – | –
Cog7 | DRSC16331 | -0.3 | -0.1 | – | –
Rac2 | DRSC11262 | 1.1 | 1.3 | – | –
CG31106 | DRSC14655 | 0 | -0.7 | – | –
Caf1-55 | DRSC16596 | -0.5 | -1.1 | – | –
CG14820 | DRSC10191 | 1.6 | -0.4 | – | –
Ilk | DRSC11868 | 0.4 | -0.1 | – | –
DnaJ-H | DRSC03273 | -0.4 | 0.5 | – | –
CG12679 | DRSC20493 | -0.2 | -0.1 | – | –
ara | DRSC11322 | 3 | 1.2 | – | –
yps | DRSC11411 | -0.2 | -0.6 | – | –
cGlr2 | DRSC04017 | -0.2 | -0.1 | – | –
CtBP | DRSC16617 | 1.3 | 1.9 | – | –
Edg84A | DRSC12594 | -0.4 | -0.2 | – | –
